These are yes or no findings as the source states them, for the method shown. In cells and extracts the contact can be indirect. Some entries that bind do so weakly or less than the wild type.

By UniProt entry, the sequences of proteins in these tests, tags left out. Residues count along the entry.
UniProt P29994: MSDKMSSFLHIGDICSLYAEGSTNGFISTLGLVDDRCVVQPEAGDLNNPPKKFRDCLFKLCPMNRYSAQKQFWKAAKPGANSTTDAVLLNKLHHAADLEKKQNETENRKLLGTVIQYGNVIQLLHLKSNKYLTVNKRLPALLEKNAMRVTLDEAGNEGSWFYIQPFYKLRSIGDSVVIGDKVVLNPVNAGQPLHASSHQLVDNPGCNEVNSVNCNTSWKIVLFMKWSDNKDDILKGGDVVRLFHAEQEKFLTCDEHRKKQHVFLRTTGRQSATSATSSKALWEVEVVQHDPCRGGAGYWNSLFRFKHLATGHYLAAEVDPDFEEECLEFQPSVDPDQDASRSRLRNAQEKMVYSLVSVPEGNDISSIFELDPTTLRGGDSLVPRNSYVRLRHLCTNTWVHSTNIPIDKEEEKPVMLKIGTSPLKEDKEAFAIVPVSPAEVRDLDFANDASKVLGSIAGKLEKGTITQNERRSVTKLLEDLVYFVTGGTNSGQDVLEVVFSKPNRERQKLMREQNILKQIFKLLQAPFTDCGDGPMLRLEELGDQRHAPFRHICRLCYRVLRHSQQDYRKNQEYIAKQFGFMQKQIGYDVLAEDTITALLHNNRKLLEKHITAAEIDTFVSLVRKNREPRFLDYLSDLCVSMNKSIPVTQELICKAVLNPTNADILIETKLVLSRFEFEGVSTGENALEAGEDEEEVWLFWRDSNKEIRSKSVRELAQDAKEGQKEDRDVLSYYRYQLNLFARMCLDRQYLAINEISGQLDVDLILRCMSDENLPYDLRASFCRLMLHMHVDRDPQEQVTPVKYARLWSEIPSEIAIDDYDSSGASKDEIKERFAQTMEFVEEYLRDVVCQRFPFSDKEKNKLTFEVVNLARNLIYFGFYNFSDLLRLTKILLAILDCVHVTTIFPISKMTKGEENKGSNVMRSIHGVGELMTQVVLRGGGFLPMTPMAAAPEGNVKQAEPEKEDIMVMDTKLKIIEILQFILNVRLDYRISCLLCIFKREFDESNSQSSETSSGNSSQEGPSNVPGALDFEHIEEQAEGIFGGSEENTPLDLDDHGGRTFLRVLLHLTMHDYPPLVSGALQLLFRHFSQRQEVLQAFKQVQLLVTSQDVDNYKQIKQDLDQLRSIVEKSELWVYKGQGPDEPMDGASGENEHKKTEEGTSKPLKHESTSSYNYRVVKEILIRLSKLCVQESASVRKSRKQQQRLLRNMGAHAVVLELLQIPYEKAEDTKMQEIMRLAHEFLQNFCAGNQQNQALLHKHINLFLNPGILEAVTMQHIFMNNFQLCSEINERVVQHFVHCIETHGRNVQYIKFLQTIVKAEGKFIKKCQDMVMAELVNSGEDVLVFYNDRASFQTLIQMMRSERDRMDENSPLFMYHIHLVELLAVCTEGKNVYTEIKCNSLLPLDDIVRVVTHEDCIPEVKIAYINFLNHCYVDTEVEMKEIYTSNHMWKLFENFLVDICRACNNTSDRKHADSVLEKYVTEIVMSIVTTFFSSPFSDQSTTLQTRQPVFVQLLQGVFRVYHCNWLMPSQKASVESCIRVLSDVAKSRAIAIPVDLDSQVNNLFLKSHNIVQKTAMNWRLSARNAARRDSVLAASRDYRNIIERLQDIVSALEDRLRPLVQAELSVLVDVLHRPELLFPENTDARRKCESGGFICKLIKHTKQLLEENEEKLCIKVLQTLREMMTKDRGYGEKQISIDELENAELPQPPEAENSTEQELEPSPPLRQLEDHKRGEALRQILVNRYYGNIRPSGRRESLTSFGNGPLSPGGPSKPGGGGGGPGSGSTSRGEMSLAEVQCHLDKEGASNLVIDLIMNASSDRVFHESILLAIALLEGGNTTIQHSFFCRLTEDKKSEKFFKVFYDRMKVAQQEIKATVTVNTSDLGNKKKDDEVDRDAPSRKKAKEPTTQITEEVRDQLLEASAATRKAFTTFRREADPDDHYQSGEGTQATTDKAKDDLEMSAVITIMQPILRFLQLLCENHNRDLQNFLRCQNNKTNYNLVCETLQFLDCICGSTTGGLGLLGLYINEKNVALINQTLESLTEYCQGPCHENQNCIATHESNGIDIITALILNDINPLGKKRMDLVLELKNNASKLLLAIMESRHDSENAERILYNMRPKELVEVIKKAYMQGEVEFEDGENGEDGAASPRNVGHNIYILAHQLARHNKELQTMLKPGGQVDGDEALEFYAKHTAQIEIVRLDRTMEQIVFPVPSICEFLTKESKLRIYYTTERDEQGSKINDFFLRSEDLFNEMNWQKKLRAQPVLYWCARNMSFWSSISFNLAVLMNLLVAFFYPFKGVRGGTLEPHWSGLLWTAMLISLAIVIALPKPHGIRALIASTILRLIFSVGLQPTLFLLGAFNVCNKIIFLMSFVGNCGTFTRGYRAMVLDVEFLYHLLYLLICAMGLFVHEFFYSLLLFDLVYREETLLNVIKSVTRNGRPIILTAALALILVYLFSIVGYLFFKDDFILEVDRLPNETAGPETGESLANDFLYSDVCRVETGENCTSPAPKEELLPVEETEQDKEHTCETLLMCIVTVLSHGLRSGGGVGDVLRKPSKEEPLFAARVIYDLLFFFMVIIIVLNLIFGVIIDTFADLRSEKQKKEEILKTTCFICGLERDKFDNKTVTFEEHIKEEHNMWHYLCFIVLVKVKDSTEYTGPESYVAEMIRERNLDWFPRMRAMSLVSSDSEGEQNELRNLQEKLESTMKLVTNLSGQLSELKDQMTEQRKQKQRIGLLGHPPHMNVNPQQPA
UniProt Q9Z2L0: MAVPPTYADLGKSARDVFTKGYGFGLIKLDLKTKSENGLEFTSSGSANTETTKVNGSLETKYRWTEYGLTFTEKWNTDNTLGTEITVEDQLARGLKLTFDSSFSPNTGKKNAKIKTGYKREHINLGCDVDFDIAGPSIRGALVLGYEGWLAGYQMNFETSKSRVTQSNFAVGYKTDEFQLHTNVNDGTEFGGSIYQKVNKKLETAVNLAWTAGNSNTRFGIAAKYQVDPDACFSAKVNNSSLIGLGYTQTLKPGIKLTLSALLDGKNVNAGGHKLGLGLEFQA
UniProt P48721, residues 47-679: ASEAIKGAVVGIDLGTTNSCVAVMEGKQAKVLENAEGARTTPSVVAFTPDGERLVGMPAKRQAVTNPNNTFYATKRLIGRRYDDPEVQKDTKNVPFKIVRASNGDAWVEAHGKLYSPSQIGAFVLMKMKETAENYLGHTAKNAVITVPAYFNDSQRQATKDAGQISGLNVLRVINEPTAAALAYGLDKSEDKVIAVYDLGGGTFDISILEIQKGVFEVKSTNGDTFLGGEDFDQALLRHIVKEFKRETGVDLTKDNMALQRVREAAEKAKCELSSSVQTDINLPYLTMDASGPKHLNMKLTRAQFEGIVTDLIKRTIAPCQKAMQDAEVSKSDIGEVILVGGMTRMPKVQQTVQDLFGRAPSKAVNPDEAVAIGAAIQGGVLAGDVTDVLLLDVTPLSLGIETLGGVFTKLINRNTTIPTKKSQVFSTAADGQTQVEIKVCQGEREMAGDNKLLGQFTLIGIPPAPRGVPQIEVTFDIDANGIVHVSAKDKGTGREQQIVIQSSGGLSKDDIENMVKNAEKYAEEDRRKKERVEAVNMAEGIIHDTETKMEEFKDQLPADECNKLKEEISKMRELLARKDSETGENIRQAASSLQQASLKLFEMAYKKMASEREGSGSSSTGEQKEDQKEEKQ

In assay [1] the target is inositol 1,4,5-trisphosphate receptor 1 (rat (endogenous in rat NP cells)) (UniProt P29994). Description: co-IP; endogenous proteins in precleared lysates of rat NP cells (control or 1 MPa compression for 36 h); incubated overnight at 4°C with anti-IP3R1 or anti-VDAC1 antibody, protein A sepharose beads 2 h at 4°C; western blot. A general note: Immunoblotting shows a protein as a band on a membrane.

Assay [2] has as its target voltage-dependent anion-selective channel 1 (rat (endogenous in rat NP cells)) (UniProt Q9Z2L0). Described as above.

On to “glucose-regulated protein 75 (from UniProt P48721 47-679)”, for which the binding result in assay [1] and in assay [2] was “binds” throughout. Take “inositol 1,4,5-trisphosphate receptor 1 (from UniProt P29994 1-2750)”: the binding entry in assay [2] is listed as “binds”. For the substance “voltage-dependent anion-selective channel 1 (from UniProt Q9Z2L0 1-283)”, in assay [1], the binding result is reported as “binds”.

Source of the values: article PMC7987452.
